# Reference: PubChem BioAssay AID1671190 (National Center for Advancing Translational Sciences (NCATS), 2021)
# Amino acid sequences for entries named in this document (tags omitted). A change or cut given only in a name is not applied to a line headed by its entry.
# UniProt P18054: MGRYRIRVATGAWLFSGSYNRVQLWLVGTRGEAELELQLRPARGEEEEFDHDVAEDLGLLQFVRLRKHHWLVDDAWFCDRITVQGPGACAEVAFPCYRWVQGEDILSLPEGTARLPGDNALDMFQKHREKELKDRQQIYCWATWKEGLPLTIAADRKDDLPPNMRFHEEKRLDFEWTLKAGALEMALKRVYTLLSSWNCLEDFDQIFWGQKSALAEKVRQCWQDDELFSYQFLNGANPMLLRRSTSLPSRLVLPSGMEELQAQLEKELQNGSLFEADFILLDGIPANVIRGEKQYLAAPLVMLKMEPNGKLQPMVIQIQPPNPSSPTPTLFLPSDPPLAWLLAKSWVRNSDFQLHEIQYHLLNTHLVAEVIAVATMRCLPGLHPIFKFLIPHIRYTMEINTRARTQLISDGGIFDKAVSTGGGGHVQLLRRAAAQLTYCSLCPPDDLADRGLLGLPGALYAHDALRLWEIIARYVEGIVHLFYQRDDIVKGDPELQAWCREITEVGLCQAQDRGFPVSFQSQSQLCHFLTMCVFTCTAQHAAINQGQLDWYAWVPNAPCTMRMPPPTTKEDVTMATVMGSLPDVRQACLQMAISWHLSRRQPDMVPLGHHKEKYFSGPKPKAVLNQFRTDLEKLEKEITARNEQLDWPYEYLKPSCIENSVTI
# The whole screen tested about 580,000 compounds, of which about 6,100 (1.1%) were called active. The shares of active, inactive and inconclusive entries below differ from those in the screen. Calls come from the whole dose curve; as a rule, active = well fitted inhibition curve with a large enough effect; inconclusive = small, poorly fitted or top-dose-only effect, or another doubt; inactive = no such curve, though single readings can be large or run the other way. Potencies of inconclusive entries are doubtful fits and often do not repeat.
# Molecular target: Polyunsaturated fatty acid lipoxygenase ALOX12 (Homo sapiens) (UniProt P18054)
# Experiment: Primary qHTS assay for inhibitors of human arachidonate 12S-lipoxygenase (ALOX12): Round 2
# Settings: purified 12hLO, xylenol orange hydroperoxide absorbance; activity change, negative = inhibition: at 108 µM (top of the series) unless noted
# Outline: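 Hydroperoxide product was detected by ferrous iron/xylenol orange as the 573 to 405 nm absorbance ratio. Arachidonic acid at 40 uM (final) was turned over for 30 min at room temperature by 150 nM human 12hLO, pH 7.0 Hepes buffer, after 15 min compound preincubation.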
# % is set by controls: 0 for no effect and ±100 for the full control effect; potency is the fitted concentration of half-maximal effect.
SMILES,Potency,"activity change, negative = inhibition"
O=C(CCCc1ccccc1)Nc1cccc(C(=O)O)c1,inactive,
Cc1noc([C@@H]2CC(F)(F)CN2S(=O)(=O)c2ccc(F)cc2)n1,inactive,
O=Cc1csc(-c2ccc(C(F)(F)F)cc2)n1,inactive,
CCOC(=O)c1c(NC(=S)Nc2ccccc2C)sc2c1CCC2,"inconclusive: 44.7 µM [inhibitor, partial curve]",
CS(=O)(=O)N1CCCc2cc(C(=O)Nc3ccc(-c4nnc5n4CCCCC5)cc3)ccc21,"inconclusive: 89.1 µM [inhibitor, partial curve, poor fit]",
CC(C#N)OC(=O)c1ccccc1Cc1ccccc1 (stereo not given),"inconclusive: 141 µM [inhibitor, single point]",
CCCCN(Cc1cc2cc(OC)ccc2[nH]c1=O)S(C)(=O)=O,"inconclusive: 89.1 µM [inhibitor, single point]",
COc1ccc(CCNC(=O)[C@H](C)N2C(=O)N3CCc4c([nH]c5ccccc45)[C@@]3(C)C2=O)cc1,inactive,
Cc1ccc(Cl)cc1N1CCN(C(=S)NCc2ccco2)CC1,"inconclusive: 50.1 µM [inhibitor, partial curve, poor fit]",
COc1ccc(/C=N/NC(=O)c2ccncc2)c(C(=O)O)c1OC,"inconclusive: 2.82 µM [inhibitor, full curve, poor fit]",
CC1(C(=O)NCc2ccccc2Br)CCN1C(=O)CCc1ccc(Cl)cc1Cl (stereo not given),"inconclusive: 89.1 µM [inhibitor, partial curve, poor fit]",
CCc1ccc(-c2nc(CN3CCCC(C(=O)N4CCN(c5cc(Cl)ccc5C)CC4)C3)c(C)o2)cc1 (stereo not given),"inconclusive: 50.1 µM [inhibitor, partial curve, poor fit]",
c1ccc(-n2cnnc2CC2CCNCC2)cc1,"inconclusive: 8.91 µM [inhibitor, full curve, poor fit]",
O=[N+]([O-])c1cccc(CNc2ccc3c(c2)CCC3)c1,"inconclusive: 2.51 µM [inhibitor, full curve]",
N#Cc1ccc(Nc2ccccc2)c(N)c1,"inconclusive: 79.4 µM [inhibitor, single point]",
CC(CNC(=O)Cn1ccc2cc(S(=O)(=O)N3CCCCCC3)ccc21)c1ccccc1 (stereo not given),"inconclusive: 126 µM [inhibitor, partial curve, poor fit]",
COc1ccc(Cl)cc1NC(=O)CN(C)S(=O)(=O)c1ccc2c(c1)CCCN2C(C)=O,inactive,
COc1ccc(C(=O)C(C)Oc2ccc(C#N)cc2OC)cc1 (stereo not given),"inconclusive: 50.1 µM [inhibitor, partial curve, poor fit]",
Cc1ccc(C(=O)O)cc1-c1ccc(C=C2C(=O)c3ccccc3C2=O)o1,"inconclusive: 22.4 µM [inhibitor, partial curve, poor fit]",
CN1C[C@H](C(=O)Nc2cccc(F)c2)C[C@H]1c1cccc(C(F)(F)F)c1,active: 20 µM,
CCOC(=O)c1cc(-c2ccc(S(=O)(=O)Nc3ccc(C)cc3Cl)s2)on1,"inconclusive: 100 µM [inhibitor, partial curve, poor fit]",
COc1ccc(-c2ccc(C(=O)N3CCN(C)CC3)c3occc23)c(C)c1,"inconclusive: 4.47 µM [inhibitor, full curve, poor fit]",
CC(C)[C@H]1CN(C2CCOCC2)C[C@@H]1NC(=O)CCc1nncn1C,"inconclusive: 15.8 µM [inhibitor, full curve, poor fit]",
COc1ccc(-c2onc(C)c2C)cc1S(=O)(=O)NCC1CCN(Cc2ccccc2F)CC1,"inconclusive: 20 µM [inhibitor, partial curve, poor fit]",

SMILES,Potency,"activity change, negative = inhibition"
CCOC(=O)c1cnn(-c2cc(C)nc3c(-c4ccc(Cl)cc4Cl)c(C)nn23)c1N,inactive,
CCOC(=O)CSc1nc2ccccc2c(=O)n1CCc1ccc(OC)c(OC)c1,"inconclusive: 79.4 µM [inhibitor, partial curve, poor fit]",
O=c1cc(-c2ccccc2)cc(-c2ccccc2)n1CCO,"inconclusive: 100 µM [inhibitor, single point]",
CCn1ccc2sc(C)c(C(=O)NCc3cccc(Cl)c3)c2c1=O,"inconclusive: 44.7 µM [inhibitor, partial curve]",
C[N+]1(Cc2c(Cl)cccc2Cl)CCN(/C=C/C(=O)C(F)(F)F)CC1,inactive,
CCN(C(=S)Nc1ccc(Oc2ccccc2)cc1)c1ccccc1,active: 50.1 µM,
Cc1cccc(CN2CCCC(C(=O)Nc3ccccc3Oc3cccnc3)C2)c1 (stereo not given),inactive,
C/C(=N\NC(=O)Cc1csc(N2CCOCC2)n1)c1ccccc1,inactive,
COCCN1C(=O)c2cccn2CC1CNC(=O)c1cn[nH]c1-c1ccccc1 (stereo not given),inactive,
CCCNC(=O)N[C@H]1C[C@@](O)(C(=O)N[C@H](C)C(N)=O)C[C@@H](O)[C@@H]1O,inactive,
O=C(O)c1ccc(-n2c(-c3cc(-c4ccco4)[nH]n3)n[nH]c2=S)cc1,"inconclusive: 39.8 µM [inhibitor, partial curve]",
COc1ccc(NC(=O)C(c2ccc(C)cc2)N(C)C(=O)Cc2cccs2)cc1 (stereo not given),inactive,
CCOc1cccc(CN2C[C@@H](NC(=O)COC)C[C@H]2CO)c1,inactive,
CCc1ccccc1-n1c2c(cc(C#N)c1=O)C(=O)CC(c1ccccc1)C2 (stereo not given),inactive,
CCOC(=O)CCP(=O)(O)C(O)c1ccccc1 (stereo not given),inactive,
Clc1ccc(CN2CCC(Cc3ccccc3)CC2)cc1,"inconclusive: 11.2 µM [inhibitor, full curve, poor fit]",
CN(C)S(=O)(=O)c1cccc(-c2nnc(SCc3cc(Cl)cc4c3OCOC4)n2N)c1,"inconclusive: 44.7 µM [inhibitor, partial curve, poor fit]",
Cc1c(Cl)cccc1NC(=O)C(C)n1c(=O)cc(-c2ccccc2)c2c(C)nn(C)c21 (stereo not given),"inconclusive: 158 µM [inhibitor, partial curve, poor fit]",
CCc1ccc(NC(=S)N2CCN(c3cccc(OC)c3)CC2)cc1,inactive,
CCCCC[C@@H](C)N1C[C@H](COCc2ccccc2)Oc2cc(N3CC[C@@H](O)C3)ccc2S1(=O)=O,"inconclusive: 70.8 µM [inhibitor, partial curve, poor fit]",
O=C(O)CN1C2=NCCCN2c2ccccc21,"inconclusive: 56.2 µM [inhibitor, partial curve, poor fit]",
COc1cc(/C=C2\S/C(=N/S(=O)(=O)Cc3ccccc3)NC2=O)c([N+](=O)[O-])cc1OC,"inconclusive: 56.2 µM [inhibitor, partial curve, poor fit]",
CCOc1ccc(N(C(=O)c2snc(C(N)=O)c2N)C(C)C(=O)NC2CCCCC2)cc1 (stereo not given),"inconclusive: 141 µM [inhibitor, single point]",
CCCCOCCN(C)CC(=O)NCCCOC,inactive,

SMILES,Potency,"activity change, negative = inhibition"
CCCC(C)c1nnc(NC(=O)C2CCN(C(=O)c3ccccc3F)CC2)s1 (stereo not given),"inconclusive: 100 µM [inhibitor, single point]",
Cc1ccc2cc(CN(Cc3cccs3)Cc3nnnn3CC3CCCO3)c(=O)[nH]c2c1C (stereo not given),inactive,
CC(C)=C1C(=O)NN(c2ccc(C)c(Cl)c2)C1=O,active: 50.1 µM,
CCc1ccc(NC(=O)c2sc3nc(C)c(Cl)c(C)c3c2N)cc1,inactive,
COc1ccc(N2C(=O)CC(N(C)CCc3ccc(OC)c(OC)c3)C2=O)cc1 (stereo not given),"inconclusive: 100 µM [inhibitor, partial curve, poor fit]",
CCCNC(=O)N1CCCC(c2nn[nH]n2)C1 (stereo not given),"inconclusive: 7.08 µM [inhibitor, full curve]",
COc1ccc(-c2cccc(NS(=O)(=O)c3cc(C)c(OC)c(C)c3C)c2)nn1,"inconclusive: 63.1 µM [inhibitor, single point]",
CCOC(=O)c1c(C)[nH]c(C)c1C(=O)COC(=O)C1CCCN1S(=O)(=O)c1ccccc1F (stereo not given),inactive,
CC(=O)N1CCN(c2ccc(NC(=O)c3cc4ccccc4o3)cc2)CC1,inactive,
NNC(=O)CSCc1nc(-c2ccc(Cl)cc2)cs1,inactive,
O=C(c1c[nH]c2ccccc12)C(Sc1cc(Cl)ccc1Cl)c1ccccc1 (stereo not given),"inconclusive: 44.7 µM [inhibitor, partial curve, poor fit]",
CCOc1ccc(C(=O)NC2CCN(c3cnn(CC)c(=O)c3)CC2)cc1,inactive,
N#Cc1ccc(OCC(O)CSc2ccc(O)cc2)cc1 (stereo not given),inactive,
COc1ccc(NC(=O)/C(C#N)=C\C=C\c2ccco2)cc1,"inconclusive: 50.1 µM [inhibitor, partial curve, poor fit]",
O=c1cc(N2CCNCC2)oc2c(-c3ccccc3)cccc12,"inconclusive: 31.6 µM [inhibitor, single point]",
O=Cc1ccc(O)c(O)c1,"inconclusive: 0.708 µM [inhibitor, full curve, poor fit]",
CC(C)(C)NC(=O)NC(=O)CN1CCCc2ccccc21,inactive,
CCN1CCN(CCNC(=O)C2CCN(c3nnc(-n4c(C)ccc4C)s3)CC2)CC1,"inconclusive: 17.8 µM [inhibitor, partial curve, poor fit]",
CC(=O)Nc1ccc2c(O)cc(S(=O)(=O)O)cc2c1,"inconclusive: 17.8 µM [inhibitor, full curve, poor fit]",
O=C(c1ccccc1)N1CCC2(CC1)NCc1ccccc1NC2=O,,inactive: -0.376% [at 6.33 µM]
O=C(CSc1nnc(SCc2ccc(Cl)cc2)s1)N/N=C/c1ccc(Cl)cc1Cl,inactive,
CN(C)CC(O)CN(c1ccccc1)c1ccccc1 (stereo not given),"inconclusive: 100 µM [inhibitor, partial curve, poor fit]",

# Record cards, from the list above.
# Cc1ccc2cc(CN(Cc3cccs3)Cc3nnnn3CC3CCCO3)c(=O)[nH]c2c1C (stereo not given) reads Potency: inactive
# COc1ccc(N2C(=O)CC(N(C)CCc3ccc(OC)c(OC)c3)C2=O)cc1 (stereo not given) reads Potency: inconclusive: 100 µM [inhibitor, partial curve, poor fit]
# CN(C)S(=O)(=O)c1cccc(-c2nnc(SCc3cc(Cl)cc4c3OCOC4)n2N)c1 reads Potency: inconclusive: 44.7 µM [inhibitor, partial curve, poor fit]
# O=C(O)c1ccc(-n2c(-c3cc(-c4ccco4)[nH]n3)n[nH]c2=S)cc1 reads Potency: inconclusive: 39.8 µM [inhibitor, partial curve]
